Reference: paper PMC12218921, “An adaptive peptide-binding site in ubiquitin receptor hRpn13 revealed by structural studies” (Nature Communications, 2025)
These are yes or no findings as the source states them, for the method shown. Some entries that bind do so weakly or less than the wild type.

Chains of the proteins cited; added tags and fusions are not shown. Lines headed by an entry give the natural chain unless they say otherwise; changes in a name come on top. A line that says so, or that is headed by a name, gives the form on record, which may keep a tag or linker.
hRpn13_ΔMTT (Q16186, form named): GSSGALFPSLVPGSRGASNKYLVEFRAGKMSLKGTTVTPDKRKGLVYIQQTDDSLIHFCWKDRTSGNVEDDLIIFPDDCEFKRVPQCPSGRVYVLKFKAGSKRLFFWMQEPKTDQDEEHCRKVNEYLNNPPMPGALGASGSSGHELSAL

T1: TAMRA-labeled hRpn2 (940–953) (human)
T1 sequence (peptide, TAMRA (5-carboxytetramethylrhodamine) attached; position not stated): QEPEPPEPFEYIDD

B1: ENT peptide (GPGSMTT) (peptide)
peptide: GPGSMTT
B2: ENT_M1S peptide (GPGSSTT) (peptide)
peptide: GPGSSTT
B3: EDGEGEE peptide (peptide)
peptide: EDGEGEE
B4: hRpn2 (940–953) (peptide)
peptide: QEPEPPEPFEYIDD
B5: hRpn2 (944–953) (peptide)
peptide: PPEPFEYIDD

Key:
[1] = target: T1, TAMRA-labeled hRpn2 (940–953) (human); experiment: fluorescence polarisation; control: unlabeled peptides added to TAMRA-hRpn2 (940–953) without hRpn13 present; both purified
hRpn13_ΔMTT (human) = hRpn13_ΔMTT (human) (UniProt Q16186); experiment: NMR titration; 1H-15N HSQC of 0.1 mM 15N-labeled hRpn13_ΔMTT alone and with unlabeled ligand (peptides at varying molar ratios up to 20-fold excess; hRpn2 (940-953) or ubiquitin equimolar, alone or together with 20-fold EDGEGEE; K48-diUb at 4:1, 2:1 and 1:1 hRpn13 to diUb); NMR buffer (20 mM sodium phosphate pH 6.5, 50 mM NaCl, 1 mM TCEP, 10% D2O), 25 °C, 600 MHz; both purified

Row | Binder | binding [1] | binding (hRpn13_ΔMTT (human))
1 | B1 | no binding | binds weakly
2 | B2 |  | binds weakly
3 | B3 | no binding | binds weakly
4 | B4 | no binding | 
5 | B5 | no binding | 
